Measured values taken from paper PMC12165855.
These are yes or no findings as the source states them, for the method shown. Binding seen in cells or lysates may run through a third protein. Some results given as binding are weak or reduced against the parent protein; the word gives no strength. Tags and fused reporters may be left off the sequences shown.

Target: T1, KDM4C histone lysine demethylase (human (endogenous in SUM149)) (UniProt Q9H3R0)
T1 sequence: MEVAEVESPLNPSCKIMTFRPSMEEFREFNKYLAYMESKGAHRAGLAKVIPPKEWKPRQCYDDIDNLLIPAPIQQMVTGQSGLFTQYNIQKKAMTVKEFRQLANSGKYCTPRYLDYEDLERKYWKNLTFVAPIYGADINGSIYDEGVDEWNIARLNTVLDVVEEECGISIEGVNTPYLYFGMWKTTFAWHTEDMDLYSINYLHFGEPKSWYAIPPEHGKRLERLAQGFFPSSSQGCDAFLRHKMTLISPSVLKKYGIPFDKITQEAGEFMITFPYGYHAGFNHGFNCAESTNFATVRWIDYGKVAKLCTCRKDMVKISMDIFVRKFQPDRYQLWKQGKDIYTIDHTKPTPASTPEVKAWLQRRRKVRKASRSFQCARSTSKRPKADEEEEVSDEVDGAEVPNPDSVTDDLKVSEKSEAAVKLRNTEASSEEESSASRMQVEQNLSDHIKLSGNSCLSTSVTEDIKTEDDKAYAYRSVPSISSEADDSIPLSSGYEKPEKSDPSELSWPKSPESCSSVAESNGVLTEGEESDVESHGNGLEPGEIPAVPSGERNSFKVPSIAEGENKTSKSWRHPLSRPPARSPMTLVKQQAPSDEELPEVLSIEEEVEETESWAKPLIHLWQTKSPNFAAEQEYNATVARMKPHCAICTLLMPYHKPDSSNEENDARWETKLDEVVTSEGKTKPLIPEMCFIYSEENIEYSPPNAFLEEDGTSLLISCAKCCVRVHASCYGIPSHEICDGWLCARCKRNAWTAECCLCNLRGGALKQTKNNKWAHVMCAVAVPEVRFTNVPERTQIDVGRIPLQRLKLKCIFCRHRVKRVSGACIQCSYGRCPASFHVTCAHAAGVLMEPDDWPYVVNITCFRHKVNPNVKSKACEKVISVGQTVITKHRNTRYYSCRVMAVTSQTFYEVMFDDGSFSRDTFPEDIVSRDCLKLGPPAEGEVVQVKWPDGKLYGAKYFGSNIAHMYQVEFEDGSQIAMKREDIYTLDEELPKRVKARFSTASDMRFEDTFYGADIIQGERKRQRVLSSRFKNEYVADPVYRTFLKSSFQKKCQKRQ
Assay: co-IP; SUM149 nuclear lysate (300 mM NaCl, 0.5% NP40), sonicated, diluted twofold, DNase I digested; 5 µg specific antibody (KDM4C, GRHL2 or CTSL) or isotype IgG overnight at 4 °C, protein A/G magnetic beads, immunoblot with 10% input

B1: grainyhead-like 2 transcription factor (protein, UniProt Q6ISB3 1-625)
chain: MSQESDNNKRLVALVPMPSDPPFNTRRAYTSEDEAWKSYLENPLTAATKAMMSINGDEDSAAALGLLYDYYKVPRDKRLLSVSKASDSQEDQEKRNCLGTSEAQSNLSGGENRVQVLKTVPVNLSLNQDHLENSKREQYSISFPESSAIIPVSGITVVKAEDFTPVFMAPPVHYPRGDGEEQRVVIFEQTQYDVPSLATHSAYLKDDQRSTPDSTYSESFKDAATEKFRSASVGAEEYMYDQTSSGTFQYTLEATKSLRQKQGEGPMTYLNKGQFYAITLSETGDNKCFRHPISKVRSVVMVVFSEDKNRDEQLKYWKYWHSRQHTAKQRVLDIADYKESFNTIGNIEEIAYNAVSFTWDVNEEAKIFITVNCLSTDFSSQKGVKGLPLMIQIDTYSYNNRSNKPIHRAYCQIKVFCDKGAERKIRDEERKQNRKKGKGQASQTQCNSSSDGKLAAIPLQKKSDITYFKTMPDLHSQPVLFIPDVHFANLQRTGQVYYNTDDEREGGSVLVKRMFRPMEEEFGPVPSKQMKEEGTKRVLLYVRKETDDVFDALMLKSPTVKGLMEAISEKYGLPVEKIAKLYKKSKKGILVNMDDNIIEHYSNEDTFILNMESMVEGFKVTLMEI
  binding: binds
